# Laboratory results taken from US9481636B2, “N-benzylaniline derivative and uses thereof” (Nanjing Medical University, priority 2011, dated 2016).
# Tested on: OGD-injuried neurons (primary cortical neurons)
# Assay: Cell viability assay: LDH release by OGD-injured primary cortical neurons
# Assay type: cell-based, mice
# Conditions: Mus musculus, Primary cortical neuron; drug concentration 10^−6 M/L; OGD 2 hours, LDH after 8 hours
# Procedure: After primary neurons were cultured for 9 days, the medium was replaced by DMEM high glucose medium containing 1% FBS, serum-starved overnight and then washed twice with OGD culture solution. This OGD culture solution contains DMEM medium, 1% FBS, 1% penicillin/streptomycin and B27, and contains no sugar. Then, the primary neurons were incubated with the test drugs for 30 minutes, OGD culture solution was added into an anaerobic tank and oxygen-deprived for 2 hours. The OGD culture solution was discarded, and replaced by oxygen-saturated DMEM medium containing 1% FBS, 1% penicillin/streptomycin and B27. After 8 hours the culture solution was collected to measure LDH level.
# After the primary cortical neurons were treated with various processes, neuronal culture solution in six-well plates was pipetted to a 1.5 mL plastic centrifuge tube; cells were washed three times with PBS solution and each well was added PBS 1000 μl. The cells were freezed and thawed repeated for three times, centrifuged at 12000′ g for 5 minutes at 4° C., and the supernatant was removed for use. The activity of LDH enzyme was determined with 50 μl culture solution and 25 μl supernatant using lactate dehydrogenase kit.
# Protective Effects of the Objective Compounds Against Primary Cortical Neuronal Injury Cultured In Vitro (See Table 2)
compound,measurement,value
"COC(=O)c1ccc(NCc2cc(Cl)cc(Cl)c2O)cc1OCCC(=O)C1CC2CCC1(C)C2(C)C (stereo not shown) [ZL006-33, methyl 2-(bornyl-2-carbonylethoxy)-4-(2-hydroxy-3,5-dichlorobenzyl)aminobenzoate]",inhibition at 1 µM,29.9%
